Test: general procedure: peptide synthesis; 2-chlorotrityl resin (0.5 mmol/g); DIC/HOBt (SPPS); HATU/HOAT/OxymaPure/DIEA (cyclization)
Conditions: TFA salt; for isolated mass / isolated yield: whole synthesis, HCl salt for 12; for isolated yield: over all steps, scale of the general procedure 100 mg resin

Row | Substance | isolated mass | isolated yield | step yield (coupling step)
1 | D-N-Me-Phe-D-allo-Ile-L-Ser-D-Gln-D-allo-Ile-L-Ile-SAL ester | 165.1 mg | 36.3% | –
2 | D-N-Me-Phe-L-Ile-L-Ser-D-Gln-D-Ile-L-Ile-SAL ester | 167.4 mg | 36.3% | –
3 | D-Phe-L-Ile-L-Ser-D-Gln-D-allo-Ile-L-Ile-SAL ester | 160.2 mg | 34.8% | –
4 | Teixobactin | – | – | 36.8%

Reference: PMC4976201 (Nature Communications, 2016)
